Results published in PubChem BioAssay AID493014 (National Center for Advancing Translational Sciences (NCATS), 2011).
“And” between values parts separate entries of the source, which are not always exact repeats. Equal entries are not always repeated. Some of the results follow. These are further read-outs of the screen, such as a control signal, another cell line or another target. No call is given for them. Most of these compounds were active or inconclusive in the main read-out, so they are no random draw. Words in brackets tell the shape of the fitted curve; partial curves, single points and poor fits give uncertain potencies.

Test: qHTS Assay to Find Inhibitors of Chronic Active B-Cell Receptor Signaling
Details: ABC-DLBCL IkBa-CBG/CBR reporter, luminescence ratio (green luciferase fused to IkBa over red control in TMD8 lymphoma cells), 4 h
Procedure, shortened: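 TMD8 human ABC-DLBCL cells with doxycycline-inducible IκBα–green luciferase fusion and unfused red luciferase, in 0.5% FBS medium; compounds up to 46 uM, 4 h at 37C. Green/red luminescence ratio, filter-overlap corrected, fitted to concentration-response curves.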

[1] = measured here: CBR red luminescence, cell number
[2] = measured here: IkBa-CBG green luminescence

SMILES	AC50 [1]	AC50 [2]
O=C1c2cccc3cccc(c23)C(=O)N1/N=C/c1ccc(O)cc1O	14.6 µM [falling, partial curve, poor fit]	
O=S(=O)(c1ccc2c(c1)OCCO2)N1CCC(n2cnc3cc(F)ccc32)CC1	3.16 µM [falling, single point]	
Cc1ccsc1/C=N/Nc1ncc(Cl)cc1Cl	6.51 µM [falling, partial curve]	
CCOC(=O)CC(=O)CSc1nc2ccccc2c(=O)n1CCc1ccc(S(N)(=O)=O)cc1	35.5 µM [falling, single point]	
COc1cccc(C(=O)O/N=C(\N)c2ccncc2)c1OC	16.4 µM [falling, single point]	29.1 µM [falling, partial curve, poor fit]
NNC(=O)c1snnc1-c1ccccc1	3.16 µM [rising, single point]	
CC(Sc1nnc(C2CC2)n1C1CC1)C(=O)NC1(C#N)CCCCC1 (stereo unspecified)	16.4 µM [rising, single point]	
C#CC1(NC(=O)NS(=O)(=O)c2ccc(C)cc2)CCCCC1	11.2 µM [rising, partial curve]	
O=C(C[n+]1ccc(/C=N/O)cc1)N(Cc1ccccc1)Cc1ccccc1	6.31 µM [falling, partial curve, poor fit]	
CC(=O)NC(Cc1cccc(C)c1)C(=O)NC1CCN(C(=O)NCc2ccccc2)CC1 (stereo unspecified)	12.6 µM [falling, partial curve, poor fit]	
Cn1c(N)c(N=Nc2ccc(S(N)(=O)=O)cc2)c(=O)n(C)c1=O	0.501 µM [falling, full curve, poor fit]	
O=C1NC(=Nc2ccccc2)S/C1=C/c1cccs1	3.55 µM [falling, full curve, poor fit]	
CC(C)(C)C1CCC2(CC1)C(C#N)=C(SCC(=O)Nc1ccccc1)NC(=O)C2C#N (stereo unspecified)	18.4 µM [falling, partial curve, poor fit]	11.6 µM [rising, partial curve, poor fit]
Cc1ccc(-c2ccc(/C=C/C(=O)c3ccccc3)o2)cc1	1.3 µM [rising, full curve, poor fit]	
O=C(COc1ccc(/C=N/NC(=O)c2ccccc2O)cc1)Nc1ccc([N+](=O)[O-])cc1	3.66 µM [falling, partial curve, poor fit]	
COc1ccc(-c2csc(NC(=O)COC(=O)c3ccc(Br)o3)n2)cc1	0.13 µM [rising, full curve, poor fit]	
O=C(NC(=S)N1CCN(c2ccc([N+](=O)[O-])cc2)CC1)c1ccccc1	0.708 µM [falling, full curve]	
O=C(CCl)Nc1ccc2c(c1)OCO2	4.47 µM [falling, partial curve, poor fit]	
Cc1nc2ccccn2c1C(=O)N/N=C/c1ccc([N+](=O)[O-])cc1	7.08 µM [falling, partial curve, poor fit]	
N#C/C(=C/c1ccccc1)C(=O)OCC(=O)Nc1ccccc1[N+](=O)[O-]	29.1 µM [rising, single point]	
Cc1nnc(SCc2cccc(CSc3nnc(C)s3)c2)s1	2.59 µM [rising, single point]	

Some of the entries so far, as a markdown table:

| SMILES | AC50 [1] | AC50 [2] |
| --- | --- | --- |
| C#CC1(NC(=O)NS(=O)(=O)c2ccc(C)cc2)CCCCC1 | 11.2 µM [rising, partial curve] |  |
| O=C(C[n+]1ccc(/C=N/O)cc1)N(Cc1ccccc1)Cc1ccccc1 | 6.31 µM [falling, partial curve, poor fit] |  |
| CC(C)(C)C1CCC2(CC1)C(C#N)=C(SCC(=O)Nc1ccccc1)NC(=O)C2C#N (stereo unspecified) | 18.4 µM [falling, partial curve, poor fit] | 11.6 µM [rising, partial curve, poor fit] |
| Cc1ccc(-c2ccc(/C=C/C(=O)c3ccccc3)o2)cc1 | 1.3 µM [rising, full curve, poor fit] |  |
| O=C(NC(=S)N1CCN(c2ccc([N+](=O)[O-])cc2)CC1)c1ccccc1 | 0.708 µM [falling, full curve] |  |

Additional compounds:

SMILES	AC50 [1]	AC50 [2]
O=C(CN(C(=O)CNC(=O)c1cccs1)c1ccc(F)cc1)NC1CCCC1	0.112 µM [rising, full curve, poor fit]	
COc1ccc(-c2c(C)c3ccc(O)cc3oc2=O)cc1OC	14.1 µM [rising, partial curve, poor fit]	12.6 µM [falling, partial curve]
CCC(C(=O)NCc1ccco1)N(Cc1cccs1)C(=O)CNS(=O)(=O)c1ccccc1 (stereo unspecified)	16.4 µM [falling, single point]	
O=C(COC(=O)Cc1ccc(S(=O)(=O)N2CCOCC2)s1)Nc1ccc(OC(F)F)cc1	4.11 µM [rising, single point]	
O=C(CC1N=C2c3ccccc3N=C(SCC(=O)Nc3ccc(F)cc3)N2C1=O)NCc1cccs1 (stereo unspecified)	2.24 µM [falling, full curve]	12.6 µM [rising, partial curve, poor fit]
O=S(=O)(Nc1ccc(S(=O)(=O)Nc2cccc3ccccc23)cc1)c1ccccc1	0.0206 µM [falling, full curve, poor fit]	
Fc1ccc(/C=C/c2nnc(-c3cccs3)o2)cc1	7.31 µM [falling, partial curve]	
CCc1ccc(NC(=O)C(=O)NCC2CCCO2)cc1 (stereo unspecified)	35.5 µM [falling, single point]	
COC(=O)CCC(=O)Nc1nccs1	1.41 µM [rising, partial curve, poor fit]	
CCC1CCCCN1CCCNC(=O)CCCOc1cc(=O)n(C)c2ccccc12 (stereo unspecified)	28.2 µM [rising, single point]	
COc1ccccc1-n1cnc2c(c1=O)c1nc3ccccc3nc1n2-c1ccc(C)cc1	5.8 µM [falling, full curve, poor fit]	
COc1cc(-c2nc(-c3cccc(C(F)(F)F)c3)no2)cc(OC)c1OC	5.8 µM [rising, partial curve, poor fit]	
CCCCn1c(SCC(=O)c2ccc3c(c2)OCCO3)nnc1-c1ccco1	2.59 µM [rising, full curve, poor fit]	
CN(C)c1ccc(N=Nc2cccc3ccoc23)cc1	22.4 µM [falling, single point]	
COc1ccccc1CNC(=O)[C@H](NC(=O)C1CCN(C(=O)[C@@H](N)CCSC)CC1)C(C)C	2.82 µM [rising, partial curve]	
COc1ccc(NC(=O)CN2CCC(NC(=O)C3CCCCC3)CC2)c([N+](=O)[O-])c1	12.6 µM [rising, partial curve, poor fit]	
O=C(Nc1ccc2oc(-c3cccnc3)nc2c1)c1cccnc1	1.41 µM [falling, partial curve, poor fit]	
CCOC(=O)C1=C(COC(=O)/C=C/c2ccc(C)o2)NC(=O)NC1C (stereo unspecified)	10.3 µM [rising, partial curve, poor fit]	
COc1cccc(-c2cc(C(F)(F)F)nc(NCc3ccco3)n2)c1		20.6 µM [rising, partial curve, poor fit]
CC1CN(S(=O)(=O)c2ccc(C(=O)Nc3sccc3C(N)=O)cc2)CC(C)O1 (stereo unspecified)	0.146 µM [rising, partial curve, poor fit]	
COc1cc(OC)cc(-c2nc(N)n[nH]2)c1	20.6 µM [rising, single point]	

SMILES	AC50 [1]	AC50 [2]
N#CCOc1nc(N2CCOCC2)nc(N2CCOCC2)n1	4.61 µM [falling, partial curve, poor fit]	
Fc1ccc(-n2nnc(-c3ccccc3Cl)n2)cc1	17.8 µM [rising, partial curve, poor fit]	
CC(=O)Nc1cccc(NC(=O)c2oc3ccccc3c2C)c1	5.8 µM [falling, partial curve, poor fit]	
O=C(CSc1nc2ccccc2c2nc3ccccc3n12)NCc1ccco1	3.26 µM [falling, full curve, poor fit]	
COc1ccc2cc(CN(Cc3cccnc3)Cc3nnnn3Cc3ccccc3)c(=O)[nH]c2c1	3.55 µM [rising, single point]	
Cc1nn2cc(-c3ccccc3)nc2s1	12.6 µM [falling, single point]	
O=C(CCOc1ccccc1)Nc1ccccc1F	12.6 µM [falling, partial curve]	
c1nc(NCc2ccc3c(c2)OCO3)c2cc(-c3ccc4c(c3)OCCO4)ccc2n1	20.6 µM [falling, single point] and 29.1 µM [falling, single point]	
CC1(C)Cc2c(sc(NC(=O)c3ccco3)c2C(=O)O)CO1	8.2 µM [falling, partial curve]	
CC(C)OCCCNC(=O)c1ccc(NS(C)(=O)=O)cc1	3.26 µM [falling, single point]	
C/C(CC(=O)NC12CC3CC(CC(C3)C1)C2)=N\NC(=O)Cc1cccs1	5.8 µM [rising, single point]	
Cc1ccc(CS(=O)(=O)CCC(=O)NCCC2=CCCCC2)cc1	2.82 µM [rising, single point]	
COc1cc(C(=O)c2c(C)c(CCC#N)n3ccccc23)cc(OC)c1OC		3.98 µM [falling, partial curve, poor fit]
O=C(c1ccco1)N1CCN(c2ccc(Cl)cc2)CC1	29.1 µM [rising, single point]	
Cc1cc(NC(=O)Cc2ccsc2)ccc1Br	14.1 µM [rising, partial curve, poor fit]	
Cc1cccc(C)c1NC(=S)NCCc1ccccn1	11.6 µM [rising, partial curve, poor fit]	
Cc1ccc(/C=C2\SC(=S)N(CCCC(=O)NNC(=O)c3ccccc3O)C2=O)cc1	2.51 µM [falling, full curve, poor fit]	
c1ccc(CCC2Cc3ccccc3N2)cc1 (stereo unspecified)	20.6 µM [rising, single point]	
COc1ccc(C(=O)Nc2nc(-c3ccc(S(=O)(=O)N4CCOCC4)cc3)cs2)cc1	20.6 µM [falling, single point]	
CC(=O)c1ccc(NC(=O)c2ccccc2Sc2ncnc3sc(C)c(C)c23)cc1	29.1 µM [falling, single point]	
